Experimental data taken from PMC10817922.

Key:
[1] = target: T1, mouse AIM2-Flag (pcDNA3-mAIM2-Flag) (mouse) (UniProt Q91VJ1); assay: co-IP; HEK-293A cells co-transfected, lysed 24 h later in RIPA buffer (50 mM Tris-HCl pH 7.2, 150 mM NaCl, 1% Triton X-100, 0.1% SDS, Benzonase); Flag-tagged protein precipitated with anti-Flag M2 and protein G Sepharose, washed 6 times with RIPA; HA-tagged MCMV proteins detected by immunoblot
T1 sequence: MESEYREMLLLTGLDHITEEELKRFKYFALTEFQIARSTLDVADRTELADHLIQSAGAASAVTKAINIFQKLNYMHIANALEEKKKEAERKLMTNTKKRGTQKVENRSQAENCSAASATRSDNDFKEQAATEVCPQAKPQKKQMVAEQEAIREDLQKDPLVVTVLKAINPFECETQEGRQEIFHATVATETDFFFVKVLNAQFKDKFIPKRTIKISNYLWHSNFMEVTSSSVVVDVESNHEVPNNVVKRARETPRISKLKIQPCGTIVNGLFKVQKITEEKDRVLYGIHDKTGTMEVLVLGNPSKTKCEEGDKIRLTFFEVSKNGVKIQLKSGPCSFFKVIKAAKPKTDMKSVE

[2] = target: T2, mouse IFI203-Flag (pCMV-p203-Myc-DDK) (UniProt O35368); assay: as above
T2 sequence: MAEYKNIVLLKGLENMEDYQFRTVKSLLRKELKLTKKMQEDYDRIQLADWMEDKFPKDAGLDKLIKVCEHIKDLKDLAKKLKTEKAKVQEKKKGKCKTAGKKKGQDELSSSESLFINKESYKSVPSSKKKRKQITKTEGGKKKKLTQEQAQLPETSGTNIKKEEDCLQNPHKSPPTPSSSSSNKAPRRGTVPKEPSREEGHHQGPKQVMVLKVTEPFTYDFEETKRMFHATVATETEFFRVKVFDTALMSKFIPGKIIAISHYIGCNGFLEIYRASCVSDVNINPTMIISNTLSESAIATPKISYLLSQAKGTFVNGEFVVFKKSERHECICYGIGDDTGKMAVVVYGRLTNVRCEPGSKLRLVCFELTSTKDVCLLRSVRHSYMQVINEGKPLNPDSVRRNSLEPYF

[3] = target: T3, GFP-tagged mouse ASC pyrin domain (ASC-PYD-GFP) (mouse) (UniProt Q9EPB4); assay: co-IP; HEK-293A cells co-transfected, lysed 24 h later in RIPA buffer with Benzonase; GFP-tagged ASC constructs precipitated with GFP-Trap agarose, washed 6 times with RIPA; HA-tagged M83 or M84 detected by immunoblot
T3 sequence: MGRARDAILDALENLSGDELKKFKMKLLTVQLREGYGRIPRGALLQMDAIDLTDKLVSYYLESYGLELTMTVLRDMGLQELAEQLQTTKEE

[4] = target: HA-tagged M28 expressed by recombinant MCMV M28HA (mouse cytomegalovirus (MCMV), Smith strain); assay: co-IP; iBMDM (wild type; also AIM2-deficient iBMDM) infected with MCMV M84HA or M28HA, lysed at 10 hpi in NP-40 buffer; HA-tagged viral protein precipitated with anti-HA affinity matrix (3F10), washes up to 500 mM NaCl; endogenous AIM2 and ASC detected by immunoblot
[5] = target: C-terminally HA-tagged M84 expressed by recombinant MCMV M84HA (mouse cytomegalovirus (MCMV), Smith strain); assay: as above
[6] = target: C-terminally HA-tagged M84 expressed by recombinant MCMV M84HA (mouse cytomegalovirus (MCMV), Smith strain); assay: co-IP; ASC-deficient (Asc knockout) iBMDM infected with MCMV; co-immunoprecipitation with M84 (Supplementary Fig. 4b)

“HA-tagged MCMV M82 protein (expression plasmid in pcDNA3) (mouse cytomegalovirus (MCMV))” was tested, and the binding [1] was “no binding”.

“HA-tagged MCMV M83 protein (expression plasmid in pcDNA3) (mouse cytomegalovirus (MCMV))” was tested, and the binding [1] was “no binding” and the binding [2] was “no binding”.

For “HA-tagged MCMV M84 protein (expression plasmid in pcDNA3) (mouse cytomegalovirus (MCMV))”, the binding [3] was “binds”, the binding [1] was “binds” and the binding [2] was “binds”.

B1: AIM2, endogenous in immortalized bone marrow-derived macrophages (protein, UniProt Q91VJ1 1-354)
chain: T1 sequence
B1 was tested, and the binding [4] was “no binding”, the binding [5] was “binds” and the binding [6] was “no binding (only in ASC-deficient iBMDM)”.

Results are given in words; binding and its absence hold for the method and conditions named. Binding seen in cells or lysates may run through a third protein. For part of these data: Binding can be weak; no strength is given. For part of these data: Tags and fused reporters may be left off the sequences shown.
